Measurements published in doi:10.1101/2020.05.15.098178.
Where two headings read alike, the source gives them in different places. Results are given in words; binding and its absence hold for the method and conditions named. For some assays here: Binding seen in cells or lysates may run through a third protein. Some results given as binding are weak or reduced against the parent protein; the word gives no strength. For some assays here: Tags and fused reporters may be left off the sequences shown.

Sequences of proteins named here, by UniProt entry; tags and fusion partners are left off. Residues count along the entry.
UniProt O22476, residues 24-1196: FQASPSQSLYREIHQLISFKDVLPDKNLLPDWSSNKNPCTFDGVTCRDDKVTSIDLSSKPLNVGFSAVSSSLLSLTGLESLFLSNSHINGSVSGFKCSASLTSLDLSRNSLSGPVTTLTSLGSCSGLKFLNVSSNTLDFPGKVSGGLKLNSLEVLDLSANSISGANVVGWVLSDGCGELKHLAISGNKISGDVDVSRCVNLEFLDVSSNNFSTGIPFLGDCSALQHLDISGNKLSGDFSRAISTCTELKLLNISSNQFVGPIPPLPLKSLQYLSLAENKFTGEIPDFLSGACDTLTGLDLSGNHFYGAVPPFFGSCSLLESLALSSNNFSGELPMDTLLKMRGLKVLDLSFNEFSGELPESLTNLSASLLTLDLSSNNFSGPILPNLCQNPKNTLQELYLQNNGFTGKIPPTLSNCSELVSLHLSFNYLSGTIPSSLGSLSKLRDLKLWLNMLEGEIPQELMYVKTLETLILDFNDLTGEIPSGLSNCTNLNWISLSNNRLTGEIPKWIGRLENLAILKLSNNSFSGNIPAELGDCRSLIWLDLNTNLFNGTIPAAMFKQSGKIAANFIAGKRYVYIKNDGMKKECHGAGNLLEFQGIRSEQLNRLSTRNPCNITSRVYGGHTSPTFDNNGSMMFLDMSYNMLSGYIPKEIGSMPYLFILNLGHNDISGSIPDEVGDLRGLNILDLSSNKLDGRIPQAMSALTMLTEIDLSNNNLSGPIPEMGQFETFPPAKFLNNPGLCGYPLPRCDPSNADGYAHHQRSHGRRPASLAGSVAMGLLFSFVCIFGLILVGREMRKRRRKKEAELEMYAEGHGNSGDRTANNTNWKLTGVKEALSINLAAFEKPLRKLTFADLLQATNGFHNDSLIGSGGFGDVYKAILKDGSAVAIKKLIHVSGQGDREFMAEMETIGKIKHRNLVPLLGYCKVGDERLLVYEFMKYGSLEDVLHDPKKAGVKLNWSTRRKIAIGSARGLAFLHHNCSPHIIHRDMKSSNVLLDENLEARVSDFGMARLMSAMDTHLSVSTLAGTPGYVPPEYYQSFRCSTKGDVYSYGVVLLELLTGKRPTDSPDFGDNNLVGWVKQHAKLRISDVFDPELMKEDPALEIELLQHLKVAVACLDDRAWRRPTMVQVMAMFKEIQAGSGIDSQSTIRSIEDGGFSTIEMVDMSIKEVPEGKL

Experiments:
[1] = target: T1, HA-DA1 (35S::HA-DA1, transgenic da1dar1 Arabidopsis) (Arabidopsis thaliana) (UniProt P0C7Q8); experiment: co-IP
T1 sequence: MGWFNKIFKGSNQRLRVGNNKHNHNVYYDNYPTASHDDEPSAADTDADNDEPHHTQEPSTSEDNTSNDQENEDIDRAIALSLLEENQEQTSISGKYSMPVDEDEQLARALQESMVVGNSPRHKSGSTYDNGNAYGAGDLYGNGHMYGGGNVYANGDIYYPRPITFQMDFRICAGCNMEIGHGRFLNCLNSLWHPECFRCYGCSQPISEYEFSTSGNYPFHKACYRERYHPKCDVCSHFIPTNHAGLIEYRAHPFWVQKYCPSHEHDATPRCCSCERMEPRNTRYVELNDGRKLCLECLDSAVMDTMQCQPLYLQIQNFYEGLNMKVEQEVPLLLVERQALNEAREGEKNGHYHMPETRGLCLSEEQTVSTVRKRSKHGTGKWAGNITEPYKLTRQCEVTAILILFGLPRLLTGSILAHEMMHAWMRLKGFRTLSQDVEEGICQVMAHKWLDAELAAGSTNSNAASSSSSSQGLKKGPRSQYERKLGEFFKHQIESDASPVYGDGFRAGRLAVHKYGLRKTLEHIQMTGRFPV

[2] = target: T2, DA1-GFP (Arabidopsis thaliana) (UniProt P0C7Q8); experiment: co-IP
T2 sequence: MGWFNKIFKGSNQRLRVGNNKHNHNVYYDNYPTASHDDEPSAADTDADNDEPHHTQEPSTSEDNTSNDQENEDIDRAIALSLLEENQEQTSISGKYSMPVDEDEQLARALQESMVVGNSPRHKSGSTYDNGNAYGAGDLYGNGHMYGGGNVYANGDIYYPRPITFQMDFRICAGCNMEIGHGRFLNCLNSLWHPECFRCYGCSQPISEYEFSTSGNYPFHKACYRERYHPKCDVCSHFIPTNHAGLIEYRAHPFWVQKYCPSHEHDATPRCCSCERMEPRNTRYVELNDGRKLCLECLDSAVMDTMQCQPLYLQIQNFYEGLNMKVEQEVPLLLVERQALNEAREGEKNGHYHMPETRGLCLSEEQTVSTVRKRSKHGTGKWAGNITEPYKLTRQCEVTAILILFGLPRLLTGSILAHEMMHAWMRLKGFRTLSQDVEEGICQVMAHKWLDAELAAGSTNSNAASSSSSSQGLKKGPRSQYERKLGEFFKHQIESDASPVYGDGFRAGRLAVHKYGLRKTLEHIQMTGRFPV

[3] = target: T3, DA1 peptidase (bait of the yeast two-hybrid screen) (Arabidopsis thaliana) (UniProt P0C7Q8); experiment: two-hybrid
T3 sequence: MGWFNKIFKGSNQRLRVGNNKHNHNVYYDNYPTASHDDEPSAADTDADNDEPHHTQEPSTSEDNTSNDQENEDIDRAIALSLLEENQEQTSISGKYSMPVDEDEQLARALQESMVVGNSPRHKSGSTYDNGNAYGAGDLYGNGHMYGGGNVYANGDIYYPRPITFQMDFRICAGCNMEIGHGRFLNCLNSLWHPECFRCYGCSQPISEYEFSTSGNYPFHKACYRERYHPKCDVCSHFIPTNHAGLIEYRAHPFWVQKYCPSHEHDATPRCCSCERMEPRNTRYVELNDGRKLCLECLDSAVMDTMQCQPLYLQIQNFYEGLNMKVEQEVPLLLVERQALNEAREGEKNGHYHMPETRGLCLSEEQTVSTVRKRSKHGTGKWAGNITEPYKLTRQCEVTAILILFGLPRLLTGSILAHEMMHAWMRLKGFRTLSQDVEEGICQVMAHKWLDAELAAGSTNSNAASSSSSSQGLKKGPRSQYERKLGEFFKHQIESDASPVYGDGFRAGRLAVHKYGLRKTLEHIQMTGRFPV

[4] = target: T2, DA1-GFP (Arabidopsis thaliana); experiment: co-IP; remark: listed apart in the source
[5] = target: DA1 wt (yeast two-hybrid GAL4-AD and GAL4-BD fusions) (Arabidopsis thaliana) (UniProt P0C7Q8); experiment: two-hybrid
[6] = target: DA1-3D phospho-mimic (yeast two-hybrid GAL4-AD and GAL4-BD fusions) (Arabidopsis thaliana) (UniProt P0C7Q8); experiment: two-hybrid
[7] = target: T4, DA1 wt (HA-DA1 and DA1-FLAG co-expressed in da1dar1 mesophyll protoplasts) (Arabidopsis thaliana), P0C7Q8; experiment: co-IP; details: remark: other sources report otherwise
T4 chain: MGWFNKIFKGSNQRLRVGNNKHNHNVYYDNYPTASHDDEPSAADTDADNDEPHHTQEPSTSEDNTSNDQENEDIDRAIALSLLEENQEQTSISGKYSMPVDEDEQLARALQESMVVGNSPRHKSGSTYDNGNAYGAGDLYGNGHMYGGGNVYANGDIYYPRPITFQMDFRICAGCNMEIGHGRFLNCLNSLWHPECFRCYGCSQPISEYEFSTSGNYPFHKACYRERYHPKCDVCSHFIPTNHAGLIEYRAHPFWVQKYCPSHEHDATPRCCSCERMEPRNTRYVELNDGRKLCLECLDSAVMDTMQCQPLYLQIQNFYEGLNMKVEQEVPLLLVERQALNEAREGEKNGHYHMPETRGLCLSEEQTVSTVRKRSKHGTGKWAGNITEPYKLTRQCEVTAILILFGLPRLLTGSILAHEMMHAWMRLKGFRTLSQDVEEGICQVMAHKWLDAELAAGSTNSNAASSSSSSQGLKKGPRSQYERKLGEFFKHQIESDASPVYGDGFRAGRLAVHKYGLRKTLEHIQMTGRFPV

[8] = target: DA1-3D phospho-mimic (HA-DA1-3D and DA1-3D-FLAG co-expressed in da1dar1 mesophyll protoplasts) (Arabidopsis thaliana) (UniProt P0C7Q8); experiment: co-IP

BRI1-GFP (BRI1::BRI1-GFP, transgenic da1dar1 Arabidopsis) (from UniProt O22476 24-1196) (receptor)
binding [1]: binds

BRI1-3FLAG (from UniProt O22476 24-1196) (receptor)
binding [2]: binds

B1: cytoplasmic domain of the Receptor-Like Kinase (RLK) TMK4 (domain or fragment, UniProt Q9LK43 494-928)
chain: VYKFVMKRKYGRFNRTDPEKVGKILVSDAVSNGGSGNGGYANGHGANNFNALNSPSSGDNSDRFLLEGGSVTIPMEVLRQVTNNFSEDNILGRGGFGVVYAGELHDGTKTAVKRMECAAMGNKGMSEFQAEIAVLTKVRHRHLVALLGYCVNGNERLLVYEYMPQGNLGQHLFEWSELGYSPLTWKQRVSIALDVARGVEYLHSLAQQSFIHRDLKPSNILLGDDMRAKVADFGLVKNAPDGKYSVETRLAGTFGYLAPEYAATGRVTTKVDVYAFGVVLMEILTGRKALDDSLPDERSHLVTWFRRILINKENIPKALDQTLEADEETMESIYRVAELAGHCTAREPQQRPDMGHAVNVLGPLVEKWKPSCQEEEESFGIDVNMSLPQALQRWQNEGTSSSTMFHGDFSYSQTQSSIPPKASGFPNTFDSADGR
binding [3]: binds

B2: BAK1-3FLAG (receptor, UniProt Q94F62 26-615)
chain: NAEGDALSALKNSLADPNKVLQSWDATLVTPCTWFHVTCNSDNSVTRVDLGNANLSGQLVMQLGQLPNLQYLELYSNNITGTIPEQLGNLTELVSLDLYLNNLSGPIPSTLGRLKKLRFLRLNNNSLSGEIPRSLTAVLTLQVLDLSNNPLTGDIPVNGSFSLFTPISFANTKLTPLPASPPPPISPTPPSPAGSNRITGAIAGGVAAGAALLFAVPAIALAWWRRKKPQDHFFDVPAEEDPEVHLGQLKRFSLRELQVASDNFSNKNILGRGGFGKVYKGRLADGTLVAVKRLKEERTQGGELQFQTEVEMISMAVHRNLLRLRGFCMTPTERLLVYPYMANGSVASCLRERPESQPPLDWPKRQRIALGSARGLAYLHDHCDPKIIHRDVKAANILLDEEFEAVVGDFGLAKLMDYKDTHVTTAVRGTIGHIAPEYLSTGKSSEKTDVFGYGVMLLELITGQRAFDLARLANDDDVMLLDWVKGLLKEKKLEALVDVDLQGNYKDEEVEQLIQVALLCTQSSPMERPKMSEVVRMLEGDGLAERWEEWQKEEMFRQDFNYPTHHPAVSGWIIGDSTSQIENEYPSGPR
binding [4]: binds weakly

B3: DA1 wt (yeast two-hybrid GAL4-AD and GAL4-BD fusions) (enzyme, UniProt P0C7Q8 1-532)
chain: MGWFNKIFKGSNQRLRVGNNKHNHNVYYDNYPTASHDDEPSAADTDADNDEPHHTQEPSTSEDNTSNDQENEDIDRAIALSLLEENQEQTSISGKYSMPVDEDEQLARALQESMVVGNSPRHKSGSTYDNGNAYGAGDLYGNGHMYGGGNVYANGDIYYPRPITFQMDFRICAGCNMEIGHGRFLNCLNSLWHPECFRCYGCSQPISEYEFSTSGNYPFHKACYRERYHPKCDVCSHFIPTNHAGLIEYRAHPFWVQKYCPSHEHDATPRCCSCERMEPRNTRYVELNDGRKLCLECLDSAVMDTMQCQPLYLQIQNFYEGLNMKVEQEVPLLLVERQALNEAREGEKNGHYHMPETRGLCLSEEQTVSTVRKRSKHGTGKWAGNITEPYKLTRQCEVTAILILFGLPRLLTGSILAHEMMHAWMRLKGFRTLSQDVEEGICQVMAHKWLDAELAAGSTNSNAASSSSSSQGLKKGPRSQYERKLGEFFKHQIESDASPVYGDGFRAGRLAVHKYGLRKTLEHIQMTGRFPV
binding [5]: binds weakly

B4: DA1-3D phospho-mimic (yeast two-hybrid GAL4-AD and GAL4-BD fusions) (enzyme, UniProt P0C7Q8 1-532)
chain: MGWFNKIFKGSNQRLRVGNNKHNHNVYYDNYPTASHDDEPSAADTDADNDEPHHTQEPSTSEDNTSNDQENEDIDRAIALSLLEENQEQTSISGKYSMPVDEDEQLARALQESMVVGNSPRHKSGSTYDNGNAYGAGDLYGNGHMYGGGNVYANGDIYYPRPITFQMDFRICAGCNMEIGHGRFLNCLNSLWHPECFRCYGCSQPISEYEFSTSGNYPFHKACYRERYHPKCDVCSHFIPTNHAGLIEYRAHPFWVQKYCPSHEHDATPRCCSCERMEPRNTRYVELNDGRKLCLECLDSAVMDTMQCQPLYLQIQNFYEGLNMKVEQEVPLLLVERQALNEAREGEKNGHYHMPETRGLCLSEEQDVDDVRKRSKHGTGKWAGNITEPYKLTRQCEVTAILILFGLPRLLTGSILAHEMMHAWMRLKGFRTLSQDVEEGICQVMAHKWLDAELAAGSTNSNAASSSSSSQGLKKGPRSQYERKLGEFFKHQIESDASPVYGDGFRAGRLAVHKYGLRKTLEHIQMTGRFPV
binding [6]: binds

B5: DA1 wt (HA-DA1 and DA1-FLAG co-expressed in da1dar1 mesophyll protoplasts), P0C7Q8 1-532 (enzyme)
chain: MGWFNKIFKGSNQRLRVGNNKHNHNVYYDNYPTASHDDEPSAADTDADNDEPHHTQEPSTSEDNTSNDQENEDIDRAIALSLLEENQEQTSISGKYSMPVDEDEQLARALQESMVVGNSPRHKSGSTYDNGNAYGAGDLYGNGHMYGGGNVYANGDIYYPRPITFQMDFRICAGCNMEIGHGRFLNCLNSLWHPECFRCYGCSQPISEYEFSTSGNYPFHKACYRERYHPKCDVCSHFIPTNHAGLIEYRAHPFWVQKYCPSHEHDATPRCCSCERMEPRNTRYVELNDGRKLCLECLDSAVMDTMQCQPLYLQIQNFYEGLNMKVEQEVPLLLVERQALNEAREGEKNGHYHMPETRGLCLSEEQTVSTVRKRSKHGTGKWAGNITEPYKLTRQCEVTAILILFGLPRLLTGSILAHEMMHAWMRLKGFRTLSQDVEEGICQVMAHKWLDAELAAGSTNSNAASSSSSSQGLKKGPRSQYERKLGEFFKHQIESDASPVYGDGFRAGRLAVHKYGLRKTLEHIQMTGRFPV
binding [7]: binds

B6: DA1-3D phospho-mimic (HA-DA1-3D and DA1-3D-FLAG co-expressed in da1dar1 mesophyll protoplasts) (enzyme, UniProt P0C7Q8 1-532)
chain: MGWFNKIFKGSNQRLRVGNNKHNHNVYYDNYPTASHDDEPSAADTDADNDEPHHTQEPSTSEDNTSNDQENEDIDRAIALSLLEENQEQTSISGKYSMPVDEDEQLARALQESMVVGNSPRHKSGSTYDNGNAYGAGDLYGNGHMYGGGNVYANGDIYYPRPITFQMDFRICAGCNMEIGHGRFLNCLNSLWHPECFRCYGCSQPISEYEFSTSGNYPFHKACYRERYHPKCDVCSHFIPTNHAGLIEYRAHPFWVQKYCPSHEHDATPRCCSCERMEPRNTRYVELNDGRKLCLECLDSAVMDTMQCQPLYLQIQNFYEGLNMKVEQEVPLLLVERQALNEAREGEKNGHYHMPETRGLCLSEEQDVDDVRKRSKHGTGKWAGNITEPYKLTRQCEVTAILILFGLPRLLTGSILAHEMMHAWMRLKGFRTLSQDVEEGICQVMAHKWLDAELAAGSTNSNAASSSSSSQGLKKGPRSQYERKLGEFFKHQIESDASPVYGDGFRAGRLAVHKYGLRKTLEHIQMTGRFPV
binding [8]: binds
